Measured values taken from PubChem BioAssay AID1671190 (National Center for Advancing Translational Sciences (NCATS), 2021).
In all, about 580,000 compounds went through this assay and about 6,100 (1.1%) were called active. Inconclusive results, whose numbers are uncertain, are shown with a selection of clear calls. Calls come from the whole dose curve; as a rule, active = well fitted inhibition curve with a large enough effect; inconclusive = small, poorly fitted or top-dose-only effect, or another doubt; inactive = no such curve, though single readings can be large or run the other way. Potencies of inconclusive entries are doubtful fits and often do not repeat.

Sequences of proteins named here, by UniProt entry; tags and fusion partners are left off. A change or cut given only in a name is not applied to a line headed by its entry.
UniProt P18054: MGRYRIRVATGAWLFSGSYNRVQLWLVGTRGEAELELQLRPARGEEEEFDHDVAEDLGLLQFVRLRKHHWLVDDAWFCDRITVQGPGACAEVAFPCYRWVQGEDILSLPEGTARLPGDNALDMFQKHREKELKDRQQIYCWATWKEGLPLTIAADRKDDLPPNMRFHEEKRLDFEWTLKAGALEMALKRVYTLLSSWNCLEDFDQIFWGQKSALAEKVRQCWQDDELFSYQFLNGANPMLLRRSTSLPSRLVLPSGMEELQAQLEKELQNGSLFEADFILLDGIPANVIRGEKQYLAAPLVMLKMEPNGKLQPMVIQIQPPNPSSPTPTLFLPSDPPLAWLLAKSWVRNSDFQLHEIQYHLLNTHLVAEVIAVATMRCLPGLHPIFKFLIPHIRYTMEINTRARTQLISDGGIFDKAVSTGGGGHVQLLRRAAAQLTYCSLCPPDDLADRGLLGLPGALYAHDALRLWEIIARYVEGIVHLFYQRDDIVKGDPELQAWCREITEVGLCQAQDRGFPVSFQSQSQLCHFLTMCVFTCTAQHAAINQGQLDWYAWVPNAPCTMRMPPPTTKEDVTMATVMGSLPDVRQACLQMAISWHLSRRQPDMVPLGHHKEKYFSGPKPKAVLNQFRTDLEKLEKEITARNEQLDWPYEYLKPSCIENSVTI

target: Polyunsaturated fatty acid lipoxygenase ALOX12 (Homo sapiens) (UniProt P18054); test: Primary qHTS assay for inhibitors of human arachidonate 12S-lipoxygenase (ALOX12): Round 2; conditions: purified 12hLO, xylenol orange hydroperoxide absorbance; series mostly up to 108 µM
Summary of the method: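 Hydroperoxide product was detected by ferrous iron/xylenol orange as the 573 to 405 nm absorbance ratio. Arachidonic acid at 40 uM (final) was turned over for 30 min at room temperature by 150 nM human 12hLO, pH 7.0 Hepes buffer, after 15 min compound preincubation.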
Potency is the fitted concentration of half-maximal effect.

Compound | Potency
CCC(=O)Nc1nc2ccc(CC(=O)N3CCN(c4ccc(F)cc4)CC3)cc2s1 | inactive
Cn1c(=O)[nH]c(=O)c2c1nc(N1CCN(Cc3ccc(Cl)cc3)CC1)n2Cc1ccccc1F | inconclusive: 35.5 µM [inhibitor, partial curve]
O=C1C2CCCN2C(=O)N1CCCN1CCN(c2ccc([N+](=O)[O-])cc2)CC1 (stereo not given) | inconclusive: 44.7 µM [inhibitor, partial curve, poor fit]
CCN(CC(=O)Nc1ccccc1C(F)(F)F)C(=O)CCc1nc2sc3c(c2c(=O)[nH]1)CCCC3 | inconclusive: 112 µM [inhibitor, partial curve, poor fit]
CCN(Cc1ccc(OC)c(F)c1)C(=O)Cn1cnc2c(cnn2C)c1=O | inconclusive: 44.7 µM [inhibitor, partial curve, poor fit]
O=c1[nH]c(/C=C/c2cccc([N+](=O)[O-])c2)c([N+](=O)[O-])c(=O)[nH]1 | inactive
Cc1c(-c2cccc(F)c2)c(=O)oc2ccccc12 | inactive
CCCN(Cc1ccccc1)C(=O)c1cccs1 | inconclusive: 0.224 µM [inhibitor, full curve, poor fit]
CSc1cccc(Nc2ncncc2-c2nc(-c3ccccc3)no2)c1 | inactive
COc1cc(CN2CCCCC2)ccc1OCc1ccccc1 | inconclusive: 1.12 µM [inhibitor, full curve, poor fit]
CCc1c(C(=O)NCc2cccnc2N2CCOCC2)cnn1-c1ccc(F)cc1 | inactive
C/C(=N\OCC(=O)OC(C)C(=O)Nc1ccc(C)c(S(=O)(=O)N2CCOCC2)c1)c1ccc2c(c1)OCO2 (stereo not given) | inactive
Cc1ccc(-n2nc3c(=O)n(C(C)C(=O)NCc4ccccc4Cl)nc(C)c3c2C)cc1 (stereo not given) | inactive
Cc1cccn2c(=O)c(/C=C(\C#N)S(=O)(=O)c3ccc(Cl)cc3)c(N3CCC(C(N)=O)CC3)nc12 | inconclusive: 31.6 µM [inhibitor, partial curve]
Cc1cccc2c(C(=O)O)cc(-c3ccc(Cl)s3)nc12 | inconclusive: 1.58 µM [inhibitor, full curve, poor fit]
CCN1C(=O)C(CC(=O)Nc2ccc(OC)cc2)N(CCN2CCOCC2)C1=S (stereo not given) | inconclusive: 100 µM [inhibitor, single point]
N#Cc1ccc(-c2ccc(Cl)cc2)nc1SCC(=O)c1cccc(Cl)c1 | inconclusive: 141 µM [inhibitor, partial curve, poor fit]
O=C(O)CC1(CC(=O)N[C@H]2CO[C@H]3[C@@H]2OC[C@H]3O)CCCC1 | inconclusive: 11.2 µM [inhibitor, full curve]
Cc1c(Cl)cccc1-n1c2c(c(=O)[nH]c1=O)CN(CCc1ccccc1)CN2 | inactive
CCOc1cc(C(=O)Nc2ccc3sc(NC(=O)C(C)C)nc3c2)cc(OCC)c1OCC | inconclusive: 112 µM [inhibitor, single point]
Cc1cc(C(C#N)c2cccc(Cl)c2)n2ncnc2n1 (stereo not given) | inactive
O=C(CCc1nc(-c2cccs2)no1)Nc1ccccc1N1CCOCC1 | inactive
COC(=O)/C=c1\sc2ncnn2c1=O | inconclusive: 35.5 µM [inhibitor, partial curve, poor fit]
Cc1ccc2[nH]c(=O)c(COC(=O)c3cccs3)cc2c1 | inconclusive: 70.8 µM [inhibitor, partial curve, poor fit]

Laid out differently: entries from further up.

| Compound | Potency |
| --- | --- |
| CCC(=O)Nc1nc2ccc(CC(=O)N3CCN(c4ccc(F)cc4)CC3)cc2s1 | inactive |
| Cn1c(=O)[nH]c(=O)c2c1nc(N1CCN(Cc3ccc(Cl)cc3)CC1)n2Cc1ccccc1F | inconclusive: 35.5 µM [inhibitor, partial curve] |
| O=C1C2CCCN2C(=O)N1CCCN1CCN(c2ccc([N+](=O)[O-])cc2)CC1 (stereo not given) | inconclusive: 44.7 µM [inhibitor, partial curve, poor fit] |
| CCN(CC(=O)Nc1ccccc1C(F)(F)F)C(=O)CCc1nc2sc3c(c2c(=O)[nH]1)CCCC3 | inconclusive: 112 µM [inhibitor, partial curve, poor fit] |
| CCN(Cc1ccc(OC)c(F)c1)C(=O)Cn1cnc2c(cnn2C)c1=O | inconclusive: 44.7 µM [inhibitor, partial curve, poor fit] |
| Cc1c(-c2cccc(F)c2)c(=O)oc2ccccc12 | inactive |
| CCCN(Cc1ccccc1)C(=O)c1cccs1 | inconclusive: 0.224 µM [inhibitor, full curve, poor fit] |
| CSc1cccc(Nc2ncncc2-c2nc(-c3ccccc3)no2)c1 | inactive |
| C/C(=N\OCC(=O)OC(C)C(=O)Nc1ccc(C)c(S(=O)(=O)N2CCOCC2)c1)c1ccc2c(c1)OCO2 (stereo not given) | inactive |
| Cc1ccc(-n2nc3c(=O)n(C(C)C(=O)NCc4ccccc4Cl)nc(C)c3c2C)cc1 (stereo not given) | inactive |
| Cc1cccn2c(=O)c(/C=C(\C#N)S(=O)(=O)c3ccc(Cl)cc3)c(N3CCC(C(N)=O)CC3)nc12 | inconclusive: 31.6 µM [inhibitor, partial curve] |
| Cc1cccc2c(C(=O)O)cc(-c3ccc(Cl)s3)nc12 | inconclusive: 1.58 µM [inhibitor, full curve, poor fit] |
| N#Cc1ccc(-c2ccc(Cl)cc2)nc1SCC(=O)c1cccc(Cl)c1 | inconclusive: 141 µM [inhibitor, partial curve, poor fit] |
| O=C(O)CC1(CC(=O)N[C@H]2CO[C@H]3[C@@H]2OC[C@H]3O)CCCC1 | inconclusive: 11.2 µM [inhibitor, full curve] |
| CCOc1cc(C(=O)Nc2ccc3sc(NC(=O)C(C)C)nc3c2)cc(OCC)c1OCC | inconclusive: 112 µM [inhibitor, single point] |
| Cc1cc(C(C#N)c2cccc(Cl)c2)n2ncnc2n1 (stereo not given) | inactive |
| O=C(CCc1nc(-c2cccs2)no1)Nc1ccccc1N1CCOCC1 | inactive |
| COC(=O)/C=c1\sc2ncnn2c1=O | inconclusive: 35.5 µM [inhibitor, partial curve, poor fit] |
| Cc1ccc2[nH]c(=O)c(COC(=O)c3cccs3)cc2c1 | inconclusive: 70.8 µM [inhibitor, partial curve, poor fit] |

The listing continues.

Compound | Potency
COc1cc2ncn(-c3cc(OCc4ccccc4C(F)(F)F)c(C(N)=O)s3)c2cc1OC | inactive
COc1ccc(NC(=O)CN(Cc2ccc3c(c2)OCO3)C2CCCC2)cc1 | inconclusive: 63.1 µM [inhibitor, partial curve, poor fit]
CCOC(=O)C1=C(COC(=O)c2ccccc2OC)NC(=O)NC1C (stereo not given) | inconclusive: 56.2 µM [inhibitor, partial curve, poor fit]
CCOC(=O)Cc1cc(=O)n2[nH]cc(-c3cccc(Br)c3)c2n1 | inactive
Cc1cc(C)c(CNC(=O)c2cc(-c3ccccc3C)cc3c2OCCN3C)c(=O)[nH]1 | active: 112 µM
CN(C(=O)CSc1ccc2c(c1)OCCCO2)c1ccccc1 | inactive
CN(C)c1ccc(-c2cc(-c3ccccc3)nc(-c3ccccc3)c2)cc1 | inactive
O=C1CCC/C(=N/NC(=O)c2ccc(Cl)cc2)C1 | inconclusive: 44.7 µM [inhibitor, partial curve, poor fit]
COc1cc(Cl)ccc1C(=O)NC1CCN(c2cc(C(F)(F)F)nc(C)n2)CC1 | inactive
COCc1cc(C)nc2sc3c(c12)NC(c1ccc(O)cc1)N(c1ccc(C)cc1)C3=O (stereo not given) | inconclusive: 112 µM [inhibitor, single point]
C=C(C)CC1(NCc2ccccc2)CCCCC1 | inconclusive: 50.1 µM [inhibitor, partial curve, poor fit]
NC(Cc1ccc(F)cc1)c1csc(Nc2ccc(C(=O)c3ccccc3)cc2)n1 (stereo not given) | inconclusive: 100 µM [inhibitor, single point]
COc1ccc(NC(=O)c2ccc(-c3ccc(C(C)=O)cc3)o2)cn1 | inconclusive: 50.1 µM [inhibitor, partial curve, poor fit]
O=C(Nc1ccc(Cl)cn1)c1cccc(S(=O)(=O)N2CCOCC2)c1 | inconclusive: 4.47 µM [inhibitor, full curve, poor fit]
CC1CCN(CCCNCc2ccccc2)CC1 | inconclusive: 35.5 µM [inhibitor, partial curve, poor fit]
O=C(C[C@H]1NC(=O)c2ccccc2NC1=O)NCCc1ccc(O)cc1 | inactive
COc1ccc(CCN(C)Cc2c(O)ccc3ccccc23)cc1OC | inconclusive: 44.7 µM [inhibitor, partial curve, poor fit]
CSCCC(NS(=O)(=O)c1cccc(C(F)(F)F)c1)C(=O)N(C)Cc1ccc2c(c1)OCCO2 (stereo not given) | inconclusive: 63.1 µM [inhibitor, partial curve, poor fit]
O=[N+]([O-])c1cc(/C=N\Nc2nc(-c3ccccc3)cs2)ccc1O | inactive
COC(=O)c1ccc(NC(c2ccc(Cl)cc2)P(=O)(OC)OC)cc1 (stereo not given) | inconclusive: 22.4 µM [inhibitor, full curve, poor fit]
CNCc1cc(C)ccc1OC | inactive
CCOc1ccc2nc(SCC(=O)N(CC(C)C)c3c(N)n(Cc4ccccc4)c(=O)[nH]c3=O)[nH]c2c1 | inactive
O=C(COC(=O)C12CC3CC(CC(Br)(C3)C1)C2)Nc1c(Br)cc([N+](=O)[O-])cc1Br | inconclusive: 35.5 µM [inhibitor, partial curve, poor fit]
COc1ccc(-c2nc3scc(CCNC(=O)c4cc(OC)cc(OC)c4)n3n2)cc1 | inactive

Compound | Potency
O=C1CN(C(=O)c2cc(=O)[nH]c3ccccc23)CCN1 | inactive
CCOC(=O)c1c(C)n(C)c2ccc(OC)c(NC(=O)CN3CCCCC3)c12 | inconclusive: 0.447 µM [inhibitor, full curve, poor fit]
CC[C@]1(C(=O)OC)[C@H]2C(=O)N(C)C(=O)[C@H]2[C@H]2CN=C(SCc3ccc(C(=O)OC)cc3)N21 | inconclusive: 44.7 µM [inhibitor, partial curve, poor fit]
O=[N+]([O-])c1cccc(N/N=C/c2ccc(N3CCOCC3)cc2)c1 | inconclusive: 50.1 µM [inhibitor, partial curve, poor fit]
CCc1nc(CC(=O)Nc2ccc(C)cc2)sc1C | inactive
CCc1nc2c(c(-c3ccc(Cl)cc3)n1)CCN(Cc1cccn1C)CC2 | inactive
O=C(O)CSCCc1ccccn1 | inconclusive: 35.5 µM [inhibitor, single point]
COc1cccc(CNc2ncc(Br)cc2Br)c1O | inconclusive: 44.7 µM [inhibitor, partial curve, poor fit]
CC1Cc2ccccc2N1C(=O)CSc1nnc(-c2ccc(S(=O)(=O)N3CCOCC3)cc2)n1C (stereo not given) | inactive
COc1ccc(/C=C/C(=O)C2(C)CCCCC2)cc1 | inactive
O=c1[nH]c(Cc2ccccn2)nc2scc(-c3ccc(Cl)cc3)c12 | inconclusive: 44.7 µM [inhibitor, partial curve, poor fit]
N#Cc1nc(-c2ccc(F)cc2)oc1NCc1ccccc1Cl | inconclusive: 28.2 µM [inhibitor, partial curve, poor fit]
CCNC(=S)/N=C(/Nc1ccccc1)Nc1nc(C)cc(C)n1 | inconclusive: 3.98 µM [inhibitor, full curve, poor fit]
Cc1ccc2oc(=O)c(S(=O)(=O)c3ccc(F)c(C)c3)cc2c1 | inactive
Cc1cc(C)n2c(SCC(=O)NCc3ccc4c(c3)OCO4)nnc2n1 | inactive
O=C(CCn1nc(-c2ccc(Cl)cc2)c2ccccc2c1=O)N1CCOCC1 | inactive
COCCNC(=S)NCCCNc1nc2cc3c(cc2cc1C#N)OCO3 | inactive
Cc1cccc(C)c1Nc1n[nH]c(=S)s1 | inconclusive: 31.6 µM [inhibitor, partial curve, poor fit]
CN1CCN(c2nc3ccccc3nc2C(C#N)C(=O)OC2CCCCC2)CC1 (stereo not given) | inconclusive: 79.4 µM [inhibitor, partial curve, poor fit]
O=C(Nc1ccc(CN2CCOCC2)cc1)c1ccc(-c2ccc(Br)cc2)o1 | inactive
O[C@@H]1[C@@H](Cn2cc(-c3cccnc3)nn2)C[C@@H](NC2CCOCC2)[C@@H]1O | inconclusive: 14.1 µM [inhibitor, full curve]
COc1ccc(NC(=S)Nc2ccccn2)c(OC)c1 | inconclusive: 28.2 µM [inhibitor, partial curve, poor fit]
